Source: PubChem BioAssay AID493246 (Drosophila RNAi Screening Center, 2011)
The screen tested about 21,000 reagents; this is a random part of those that have a named target and a result. Of all reagents, 429 (2%) got an active call. 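Values are raw and not normalised between plates; calls rest on per-plate z-scores that were not deposited.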 A number with no mark means an inactive call. A plus sign joins genes that one reagent is predicted to hit. Reagent sequences are not shown. Not stated in the record: the amount of reagent, the time to read-out.

Assay: 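Genes fly cells need to grow and stay alive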 (primary screen)
Cell system: Drosophila Kc and S2R+ cells
Knock-down reagent: long dsRNA against Drosophila genes
Measurement: 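Cell number per well after knock-down, printed as raw plate values; calls were based on per-plate z-scores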
Reading the numbers: Kc cell number and S2R+ cell number: higher = more cells remaining
Rule for the call: 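Counted as a hit if cell number falls by a z-score of at least 3 within its plate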

Gene	amplicon	Kc cell number, rep 1	Kc cell number, rep 2	S2R+ cell number, rep 1	S2R+ cell number, rep 2
CG14958	DRSC08417	1.37e6	1.44e6	8.92e5	1.00e6
Slob (retired record)	DRSC03436	1.28e6	1.33e6	6.27e5	9.53e5
hid	DRSC11316	1.38e6	1.50e6	1.32e6	1.37e6
ort	DRSC16240	1.41e6	1.38e6	1.08e6	1.17e6
TTLL3A	DRSC02143	1.56e6	1.60e6	1.26e6	1.43e6
Obp50e	DRSC06434	1.65e6	1.59e6	1.36e6	1.42e6
Hipk	DRSC07885	1.37e6	1.38e6	1.01e6	1.17e6
Hipk	DRSC08507	1.18e6	1.08e6	9.53e5	1.00e6
CG4042	DRSC11751	1.40e6	1.35e6	1.35e6	1.40e6
BBS8	DRSC00360	1.50e6	1.53e6	1.01e6	1.20e6
CG18542 + CG32939	DRSC15342	1.50e6	1.57e6	1.26e6	1.35e6
CG10631	DRSC02081	1.42e6	1.45e6	1.39e6	1.41e6
Arp2	DRSC19332	1.42e6	1.41e6	1.02e6	1.11e6
moody	DRSC18515	1.60e6	1.55e6	1.09e6	1.19e6
Vps45	DRSC16398	1.42e6	1.43e6	1.20e6	1.25e6
mthl15	DRSC01120	1.44e6	1.52e6	9.74e5	1.05e6
CG18853	DRSC06795	1.64e6	1.63e6	1.34e6	1.47e6
Cpr49Ag	DRSC07203	1.51e6	1.57e6	1.26e6	1.31e6
Lcp3	DRSC07457	1.56e6	1.65e6	1.27e6	1.37e6
Ugt37A3	DRSC15937	1.93e6	1.94e6	1.36e6	1.35e6
CG15876	DRSC08484	1.59e6	1.49e6	1.25e6	1.27e6
rpr	DRSC11390	1.35e6	1.44e6	1.13e6	1.24e6
BomBc2	DRSC06502	1.49e6	1.54e6	1.10e6	1.22e6
Sap30	DRSC19916	1.58e6	1.57e6	1.04e6	1.21e6
alphaTub84B	DRSC12622	1.44e6 (active)	1.52e6	8.29e5	9.03e5
Acp1	DRSC01854	1.69e6	1.68e6	1.19e6	1.31e6
Gp210	DRSC04861	1.54e6	1.57e6	1.27e6	1.38e6
Gp210	DRSC04900	1.36e6	1.45e6	1.14e6	1.18e6
CG4360	DRSC15566	1.55e6	1.65e6	1.00e6	1.06e6
ASPP	DRSC04305	1.32e6	1.41e6	7.87e5	2.48e5
Fum1	DRSC18344	5.85e5		9.37e5	
LysE	DRSC08675	1.41e6	1.27e6	9.38e5	1.25e6
tplus3a + tplus3b	DRSC03687	4.82e5		8.11e5	
mia	DRSC12137	1.56e6	1.64e6	1.14e6	1.17e6
CG8840	DRSC00713	1.61e6	1.30e6	1.11e6	1.27e6
kek6	DRSC15299	1.52e6	1.53e6	9.61e5	1.10e6
Golgin104	DRSC10459	1.61e6	1.64e6	1.25e6	1.33e6
Mat89Ba	DRSC14540	1.44e6	1.62e6	1.13e6	1.20e6
Duox	DRSC00571	1.60e6	1.59e6	1.04e6	1.20e6
thoc6	DRSC10528	1.45e6	1.46e6	1.18e6	1.18e6
Caf1-180	DRSC17807	5.40e5		8.20e5	
CG10317	DRSC14229	1.25e6	1.26e6	1.17e6	1.36e6
bou	DRSC17924	1.44e6	1.47e6	1.06e6	1.15e6
sut1	DRSC07700	1.39e6	1.49e6	1.06e6	1.07e6
Tb	DRSC15815	1.48e6	1.56e6	9.51e5	1.09e6
Tsp42El	DRSC06186	1.68e6	1.76e6	1.20e6	1.16e6
Pits	DRSC19385	1.44e6	1.41e6	8.07e5	9.26e5
Pits	DRSC19812	1.49e6	1.63e6	1.01e6	1.14e6
Vha100-3	DRSC05760	5.08e5		8.04e5	
epsilonCOP	DRSC02003	1.19e6	1.35e6	4.62e5	5.12e5
Adgf-D	DRSC16521	1.16e6	1.16e6	1.16e6	1.30e6
Vps4	DRSC19338	1.29e6	1.39e6	8.94e5	1.01e6
geminin	DRSC04984	1.07e6 (active)	1.11e6	1.01e6	1.31e6
Cpr31A	DRSC02779	1.47e6	1.57e6	1.22e6	1.32e6
CG10332 (retired record) + IM18	DRSC04064	1.60e6	1.76e6	1.24e6	1.39e6
CG17002	DRSC04978	1.48e6	1.54e6	1.19e6	1.21e6
Irk1	DRSC16106	1.51e6	1.51e6	1.02e6	1.12e6
CG14961	DRSC08420	1.44e6	1.30e6	9.95e5	1.18e6
amos	DRSC03484	1.65e6	1.69e6	1.21e6	3.07e5
CG13720	DRSC08329	1.47e6	1.34e6	1.07e6	1.14e6
CG18467	DRSC06758	1.78e6	1.85e6	1.35e6	1.53e6
CG14810	DRSC17693	1.37e6	1.65e6	9.55e5	1.06e6
CG14810	DRSC17961	1.48e6	1.44e6	1.02e6	1.08e6
COX6AL2 + Ir75d	DRSC10081	1.55e6	1.73e6	1.21e6	1.39e6
mad2	DRSC10274	1.47e6	1.23e6	1.03e6	1.05e6
ND4 (retired record)	DRSC21269	1.87e6	1.86e6	1.18e6	1.36e6
Hakai	DRSC02031	1.52e6	1.53e6	1.35e6	1.35e6
CG14625	DRSC18633	1.48e6	1.49e6	1.08e6	1.24e6
Tango6	DRSC02671	1.34e6	1.46e6	1.37e6	1.29e6
ytr	DRSC04306	1.38e6	1.45e6	1.13e6	1.16e6
CG6765	DRSC10706	1.28e6	1.38e6	1.15e6	1.20e6
CG11437	DRSC11659	1.88e6	2.34e6	1.30e6	1.41e6
Ku80	DRSC02699	1.58e6	1.60e6	1.32e6	1.47e6
CG3558	DRSC00615	1.33e6	1.30e6	8.48e5	9.65e5
frj	DRSC03250	1.28e6	1.34e6	5.82e5	8.10e5

Laid out differently: results already given
Sap30 [DRSC19916] | Kc cell number, rep 1 = 1.58e6; Kc cell number, rep 2 = 1.57e6; S2R+ cell number, rep 1 = 1.04e6; S2R+ cell number, rep 2 = 1.21e6
alphaTub84B [DRSC12622] | Kc cell number, rep 1 = 1.44e6 (active); Kc cell number, rep 2 = 1.52e6; S2R+ cell number, rep 1 = 8.29e5; S2R+ cell number, rep 2 = 9.03e5
Acp1 [DRSC01854] | Kc cell number, rep 1 = 1.69e6; Kc cell number, rep 2 = 1.68e6; S2R+ cell number, rep 1 = 1.19e6; S2R+ cell number, rep 2 = 1.31e6
Gp210 [DRSC04861] | Kc cell number, rep 1 = 1.54e6; Kc cell number, rep 2 = 1.57e6; S2R+ cell number, rep 1 = 1.27e6; S2R+ cell number, rep 2 = 1.38e6
Gp210 [DRSC04900] | Kc cell number, rep 1 = 1.36e6; Kc cell number, rep 2 = 1.45e6; S2R+ cell number, rep 1 = 1.14e6; S2R+ cell number, rep 2 = 1.18e6
